Values of other authors as cited in patent publication US7795239B2, “Saccharide compositions and method of use” (Mueller Medical International LLC, priority 1992, dated 2010).
Some entries share one result that the patent states for a list of compounds. Some compounds share one range, which may span the group rather than tell each member.

Settings: given with an antacid alone or with sucralfate alone (Ref 24); cited from earlier work

Row | Compound | absorption from the GI tract diminished
1 | COc1ccc2[nH]c([S+]([O-])Cc3ncc(C)c(OC)c3C)nc2c1 (stereo not drawn) [omeprazole] | 15-20%
2 | CNC(=C[N+](=O)[O-])NCCSCc1ccc(CN(C)C)o1 [ranitidine] | 15-20%
3 | CNC(=C[N+](=O)[O-])NCCSCc1csc(CN(C)C)n1 [nizatidine] | 15-20%
